Results published in patent US20240228639A1.
No constants are given. Whether binding was seen depends on the method and setting.

Columns and labels:
ANTI-BCMA CAR = experiment: flow cytometry, Clone 60-PE on anti-BCMA CAR T cells (concentration from paragraph 212)
ANTI-CD19 CAR = experiment: flow cytometry, Clone 60-PE on anti-CD19 CAR T cells (concentration from paragraph 212)
ANTI-FLT3 CAR = experiment: flow cytometry, Clone 60-PE on anti-FLT3 CAR T cells (concentration from paragraph 212)

- binding (ANTI-BCMA CAR): no binding (tested: 3 ug/mL)
- binding (ANTI-CD19 CAR): no binding (tested: 3 ug/mL)
- binding (ANTI-FLT3 CAR): no binding (tested: 3 ug/mL)
B1: anti-idiotype antibody Clone 60 (IDA2002-1.60) (antibody, mouse IgG1, kappa, V domains shown)
VH: EVQLQQSGPELVKTGTSVKISCKASGYSITGYYIHWVKQSHGRSLDWIGSISFYNGATTYNQKFKGKVTFTVDTSSSTAYMQFNSLTSEDSAVYYCGRRGDDYDVFAYWGQGTLVTVSA
VL: DIVLTQSPASLAVSLGQRATISCRASESVDSYGYSFLHWYQQKPGQPPTLLIYRASNLESGIPARFSGSGSRTDFTLTINSVEADDVATYYCQQSNEDPWTFGGGTKLEIKR
